Measurements: publication PMC7862700
Some of the results follow. Construct or isoform of the protein are uncertain.

molecular target: T1, ETV4 (UniProt P43268); test: DAPPL (digital affinity profiling via proximity ligation, sequencing); details: 10 mM Tris-HCl pH 7.5, 50 mM NaCl, 1 mM DTT, 4% glycerol, room temperature, 30 min; GST-TFs on glutathione beads, 16-mer random dsDNA library, 0.1% …; high values mean tight binding; double strand, one strand shown; scale: fold enrichment (6-mer frequency, TF over GST control)
T1 sequence: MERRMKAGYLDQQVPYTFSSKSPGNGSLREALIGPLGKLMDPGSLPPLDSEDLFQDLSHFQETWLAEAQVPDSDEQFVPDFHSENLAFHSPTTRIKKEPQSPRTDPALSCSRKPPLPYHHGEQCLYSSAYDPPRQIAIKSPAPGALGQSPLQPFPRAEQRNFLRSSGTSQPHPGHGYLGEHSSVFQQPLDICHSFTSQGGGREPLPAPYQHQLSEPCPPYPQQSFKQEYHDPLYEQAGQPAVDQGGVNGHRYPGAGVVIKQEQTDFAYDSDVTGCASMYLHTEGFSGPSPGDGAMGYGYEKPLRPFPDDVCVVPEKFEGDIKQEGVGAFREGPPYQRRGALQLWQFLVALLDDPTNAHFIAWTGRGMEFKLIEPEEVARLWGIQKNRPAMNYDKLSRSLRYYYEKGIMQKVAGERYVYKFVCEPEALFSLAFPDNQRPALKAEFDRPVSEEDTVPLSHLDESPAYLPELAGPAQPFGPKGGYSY

Sequence | binding signal
ACCAAT | 1.33
AGAATT | 1.12
TAGCAC | 1.14
ATTCCG | 1.68
CTATTC | 1.26
ACTTAA | 1.11
TTAGCG | 0.969
TGTTTG | 1.39
CTCAAA | 1.2
GTTGCA | 1.12
AAATCC | 1.48
TTAAGT | 1.23
GTCTTT | 1.35
CGATTG | 1.19
GGTCCC | 1.16
ATTACG | 1.2
GTATTA | 1.03
AATCGC | 1.07
CAATCC | 1.23
CGAAAC | 1.15

Reformatted field by field: part of the list above
GTTGCA
  binding signal: 1.12
GTATTA
  binding signal: 1.03

The listing continues:

Sequence | binding signal
TTAAAA | 1.22
AAAACA | 1.32
CTCGCC | 1.29
AAAGAC | 1.06
TTGATT | 1.3
TTGAAT | 1.14
CCCTAC | 1.41
ATTGCC | 1.31
TCCACA | 1.31
CTAATG | 1.22
CCCGCC | 1.45
GATTAC | 1.1
GCTTAT | 1.24
ATCTCC | 1.62
TAATTT | 1.31
TAAATA | 1.15
CCCGGA | 2.57
ACATAC | 1.18
CATCCC | 1.21
